Source: PubChem BioAssay AID1259405 (NCATS, 2018)

Purpose: 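Mouse-designed siRNAs used to find CHO productivity engineering targets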 (primary screen)
System: Chinese hamster CHO-K1 ovary cells with stable secreted eGFP expression
Reagent: single siRNA against mouse genes, 0.8 pmol siRNA per well (2 µl of 400 nM stock)
Duration: 3 days
Read-out: 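Percent of the per-plate non-targeting control median for intracellular GFP per well by laser scanning cytometry and for cell viability by ATP luminescence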
Scale: GFP, % of control: higher = more GFP per well, higher productivity; viability (ATP), % of control: higher = more viable cells (more ATP)
Rule for the call: 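Called active when intracellular GFP, relative to negative control, is at or above 120%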
In all, the deposit lists about 50,000 reagents; below is an unselected part. Of all reagents, about 4,000 (8%) were called active. 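Mouse siRNA library applied to hamster cells; one well for each siRNA.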 Unmarked entries are inactive. The numbers tell different reagents against one gene apart. Reagent sequences are not shown.

gene	siRNA no.	GFP, % of control	viability (ATP), % of control
Chst10	1	130 (active)	123
Chst10	2	99.8	174
Chst10	3	139 (active)	90.3
Khdc4	1	96.2	66.1
Khdc4	2	119	94
Khdc4	3	72.3	50.9
Fhl5	1	60.8	64.3
Fhl5	2	111	80.4
Adgrb1	1	129 (active)	84.9
Adgrb1	2	79.3	68.1
Adgrb1	3	65.2	59.9
Shtn1	1	61.2	71.7
Shtn1	2	36.5	50.9
Shtn1	3	98.1	129
Npas1	1	95.2	146
Npas1	2	145 (active)	94.3
Npas1	3	0	125
Vmn1r231	1	65.9	34.5
Vmn1r231	2	77.3	72.9
Vmn1r231	3	66.9	74.9
Adh4	1	56.2	54.9
Adh4	2	80.4	72.8
Adh4	3	74.4	78.5
Slc5a9	1	93.3	59.8
Slc5a9	2	139 (active)	57.7
Slc5a9	3	67.7	93.8
Ptch1	1	76.8	73.7
Ptch1	2	63.2	79
Ptch1	3	74.9	87.6
Dazap2	1	90.9	108
Dazap2	2	79.9	71.9
Dazap2	3	109	82.9
Rnf114	1	112	101
Rnf114	2	34.8	33.8
Rnf114	3	93.5	78.4
Vmn1r212	1	50.2	37.8
Vmn1r212	2	76.1	69.2
Vmn1r212	3	80.4	98.6
Hkdc1	1	60.3	54.3
Samd4	1	73	90.8
Samd4	2	71.7	69.4
Samd4	3	68	76.5
R3hcc1l	1	51.1	64.7
R3hcc1l	2	18.5	28.2
R3hcc1l	3	32.7	54.8
Dctn3	1	68.2	85.5
Dctn3	2	50.2	33.6
Dctn3	3	103	83.8
Rps23	1	58.1	27
Rps23	2	73.6	64.4
Rps23	3	114	87
Srebf1	1	59.1	59.3
Srebf1	2	69.4	67.9
Srebf1	3	116	68.2
Ebi3	1	105	79.8
Ebi3	2	80	92.6
Ebi3	3	97.8	79.9
Pgbd1	1	90.3	72.1
Pgbd1	2	49.2	69
Pgbd1	3	82.9	106
Eya2	1	88.2	69.8
Eya2	2	91.3	103
Eya2	3	108	65.9
Zscan26	1	72.4	52.3
Zscan26	2	71.7	87.1
Zscan26	3	48.4	62.5
Zcchc12	1	50.8	74
Zcchc12	2	46.1	72.5
Zcchc12	3	73.8	114
Ctsz	1	124 (active)	86
Ctsz	2	78.5	49.1
Ctsz	3	86.9	68.6
Fam3b	1	149 (active)	146
Fam3b	2	71.4	92.7
Ntng2	1	81.7	44.6
Ntng2	2	111	80.6
Ntng2	3	64.6	59.9
Nrp1	1	93.1	149
Nrp1	2	63.2	81.5
Nrp1	3	68.6	76.3
Magt1	1	126 (active)	59.8
Magt1	2	66.7	67
Magt1	3	71.8	54.6
Slc6a9	1	92.7	72.5
Slc6a9	2	53.1	65
Slc6a9	3	72.8	76.6
Bcap29	1	70.6	71.4
Bcap29	2	108	65.7
Bcap29	3	92.7	73.6
Ttyh3	1	164 (active)	63.5
Ttyh3	2	95.2	94.6
Ttyh3	3	88.3	74.7
Numb	1	125 (active)	65.6
Numb	2	44.6	64.2
Numb	3	81.3	66.7
Capn7	1	82.4	100
Capn7	2	91.5	103
Capn7	3	45.6	45
Syf2	1	59.7	59.4
Syf2	2	91.3	95.9
Syf2	3	24.1	22.2
2210408I21Rik	1	86.5	90
2210408I21Rik	2	37.8	53.2
2210408I21Rik	3	119	86.3
Lefty2	1	62.2	71.6
Lefty2	2	92	113
Psph	1	110	105
Psph	2	30.8	25
Psph	3	73	75.6

16 consecutive entries already listed, for reference:
gene	siRNA no.	GFP, % of control	viability (ATP), % of control
Samd4	2	71.7	69.4
Samd4	3	68	76.5
R3hcc1l	1	51.1	64.7
R3hcc1l	2	18.5	28.2
R3hcc1l	3	32.7	54.8
Dctn3	1	68.2	85.5
Dctn3	2	50.2	33.6
Dctn3	3	103	83.8
Rps23	1	58.1	27
Rps23	2	73.6	64.4
Rps23	3	114	87
Srebf1	1	59.1	59.3
Srebf1	2	69.4	67.9
Srebf1	3	116	68.2
Ebi3	1	105	79.8
Ebi3	2	80	92.6
